Test results published in PubChem BioAssay AID2417 (National Center for Advancing Translational Sciences (NCATS), 2010).
Screen size: about 140,000 compounds; about 4,300 (3.1%) were called active. Inconclusive results, whose numbers are uncertain, are shown with a selection of clear calls.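 The calls were made as follows: active = readout at or below -70, meaning at least 70% loss of cells showing the perinucleolar compartment, a nuclear body marking cancer cells; inconclusive = readout between -30 and a set limit; inactive = the rest.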

Test: High Content Assay for Compounds that inhibit the Assembly of the Perinucleolar Compartment;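 also: plate controls were DMSO wells for no effect and camptothecin positive control wells for full effect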
Settings: PC3M PTB-GFP, PNC prevalence imaging, 16 h; at 10 µM; hits give low values
Method in brief: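 Read-out is percentage of cells bearing a perinucleolar compartment, from automated 20x imaging of fixed, Hoechst-stained PC3M PTB-GFP cells. Cells were seeded 4 h, then exposed 16 h to compound (23 nl of library stock) in duplicate plates.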
In the case of `CCOC(=O)c1c(NC(=O)CSc2nnnn2C)sc(C)c1-c1ccc(C)cc1`, the activity change (PNC), negative = inhibition is reported as inconclusive: -32.3%.
With `COc1ccc(OC)c(-c2cc(C(=O)NCCN3CCOCC3)no2)c1` the activity change (PNC), negative = inhibition was inconclusive: -30.7%.
For `Cc1nn(C(=O)c2cccnc2)c(C)c1C`, the activity change (PNC), negative = inhibition was inconclusive: -68.4%.
For `CCCOc1ccc(C(=O)NCC(c2ccco2)N(C)C)cc1` (stereo not given), the activity change (PNC), negative = inhibition was inconclusive: -50.2%.
For `O=C(CCn1c(=O)c2ccccc2n(CC(=O)NCCC2=CCCCC2)c1=O)NCc1ccco1`, the activity change (PNC), negative = inhibition was inconclusive: -50.6%.
For `CCN(c1ccccc1)S(=O)(=O)c1cc(C(=O)Oc2ccc3c(C)cc(=O)oc3c2)ccc1C`, the activity change (PNC), negative = inhibition was inactive: 90.6%.
In the case of `CCc1cccc2c(=O)c(C(=O)NCCN3CCOCC3)c[nH]c12`, the activity change (PNC), negative = inhibition is reported as inconclusive: -35.3%.
For `CCC(=O)Nc1nc(N)n(-c2ccccc2)n1`, the activity change (PNC), negative = inhibition was inconclusive: -42.1%.
For `CCOC(=O)N1CCN(C(=O)c2ccc3c(c2)sc2nc(-c4ccc(OC)cc4)cn23)CC1`, the activity change (PNC), negative = inhibition was inactive: 17.9%.
For `CCOC(=O)c1csc(NC(=O)c2cc(OC)c(OC)c(OC)c2)n1`, the activity change (PNC), negative = inhibition was inconclusive: -30.1%.
With `Cc1cc(=O)[nH]c(SCCOc2ccc(OC(C)C)cc2)n1` the activity change (PNC), negative = inhibition was inactive: 35.8%.
With `CC(CNc1ccc([N+](=O)[O-])c2cccnc12)Nc1c([N+](=O)[O-])cc(C(F)(F)F)cc1[N+](=O)[O-]` (stereo not given) the activity change (PNC), negative = inhibition was inconclusive: -45.2%.
With `O=C(NC(=S)N1CCN(c2ccccn2)CC1)c1ccccc1` the activity change (PNC), negative = inhibition was active: -91.7%.
For `Cc1ccccc1-n1c(C)nnc1SCC(=O)NNC(=O)c1ccccc1`, the activity change (PNC), negative = inhibition was inconclusive: -47.7%.
In the case of `Cc1cc(C)n2c(SCC(=O)Nc3ncc(C(F)(F)F)cc3Cl)nnc2n1`, the activity change (PNC), negative = inhibition is reported as inactive: 11.4%.
For `CC(C)OCCCNCC(O)c1ccccc1` (stereo not given), the activity change (PNC), negative = inhibition was inconclusive: -45.2%.
For `Cc1ccc(CSc2nnc(-c3ccco3)o2)cc1`, the activity change (PNC), negative = inhibition was inconclusive: -62.9%.
For `CCOc1nc(SCCOc2ccccc2)nc(N(C)C)n1`, the activity change (PNC), negative = inhibition was inconclusive: -46.7%.
For `Cc1ccc(O)c(NC(=O)c2cc3nc4c(c(C(F)(F)F)n3n2)CCc2ccccc2-4)c1`, the activity change (PNC), negative = inhibition was inconclusive: -57.5%.
With `Cc1ccc(-n2c(=O)cc(N3CCN(Cc4ccccc4)CC3)[nH]c2=O)cc1` the activity change (PNC), negative = inhibition was inconclusive: -64.7%.
For `CC(=O)n1nc(-c2cccc(C)c2)nc1SCC(=O)Nc1ccccc1`, the activity change (PNC), negative = inhibition was inconclusive: -39.7%.
With `CC1CCC(NC(=O)C2CCC(CNS(=O)(=O)c3cccc4nsnc34)CC2)CC1` (stereo not given) the activity change (PNC), negative = inhibition was inactive: 30%.
With `Cc1cccc(C)c1OCC(=O)Nn1c(C)nc2ccccc2c1=O` the activity change (PNC), negative = inhibition was inconclusive: -33%.
For `CCN(CC)C(=O)CN(c1ccc(C)cc1)S(=O)(=O)c1ccc(SC)cc1`, the activity change (PNC), negative = inhibition was inactive: 33.1%.
For `CCOC(=O)N1CCN(C(=O)COc2ccccc2OC)CC1`, the activity change (PNC), negative = inhibition was inconclusive: -43.5%.
For `Cc1ccc(C)c(NC(=O)CSc2nnc(CCCCCNC(=O)OC(C)(C)C)o2)c1`, the activity change (PNC), negative = inhibition was inactive: 3.41%.
With `CCOC(=O)C1CCCN(c2cc(C)nc3cc(-c4ccc(F)cc4)nn23)C1` (stereo not given) the activity change (PNC), negative = inhibition was active: -90.2%.
For `COc1ccc(C2C(C#N)=C(N)N(c3ccccc3)C3=C2C(=O)CCC3)cc1Cn1cc([N+](=O)[O-])cn1` (stereo not given), the activity change (PNC), negative = inhibition was inconclusive: -50%.
With `CC(=O)Nc1ccc(NC(=O)Oc2ccccc2)cc1` the activity change (PNC), negative = inhibition was inactive: -11.9%.
For `Cc1csc(NC(=O)CSc2nnc(Cn3c(=O)sc4ccccc43)n2-c2ccccc2)n1`, the activity change (PNC), negative = inhibition was inactive: -14.6%.
In the case of `CCOC(=O)Nc1ccc2c(c1)Nc1ccccc1S2`, the activity change (PNC), negative = inhibition is reported as inactive: 41.2%.
In the case of `O=C(NNC(=O)c1cccnc1SCc1cccc([N+](=O)[O-])c1)c1cccnc1`, the activity change (PNC), negative = inhibition is reported as inconclusive: -42.6%.
For `C/C(=N\NC(=O)c1nn(C)c(C)c1Br)c1cccc(NC(=O)c2ccc(F)cc2)c1`, the activity change (PNC), negative = inhibition was inconclusive: -31.4%.
For `O=C(NCc1ccco1)c1ccc(Br)s1`, the activity change (PNC), negative = inhibition was inactive: -14.5%.
For `O=c1c2c(nc3n1CCCCC3)-c1ccccc1CC21CCCCC1`, the activity change (PNC), negative = inhibition was inconclusive: -64.2%.
In the case of `Cc1cc(/C=C2/SC(=O)N(CC(=O)OC(C)C)C2=O)c(C)n1C`, the activity change (PNC), negative = inhibition is reported as inconclusive: -50.5%.
In the case of `CCOc1ccc(C(=O)Nc2ccc(NC(=O)c3ccco3)c(Cl)c2)cc1Br`, the activity change (PNC), negative = inhibition is reported as inconclusive: -34.2%.
For `CCOc1ccccc1C(=O)NC1CCN(Cc2nnnn2C2CCCC2)CC1`, the activity change (PNC), negative = inhibition was inconclusive: -39.6%.
In the case of `O=C(CCCN1C(=O)c2cccc3cccc(c23)C1=O)N1CCN(c2ccccn2)CC1`, the activity change (PNC), negative = inhibition is reported as inactive: 26.6%.
For `CCN(CC)c1ccc(NC(=O)/C=C\c2ccccc2Cl)cc1`, the activity change (PNC), negative = inhibition was active: -81%.
With `CSc1nc(-c2ccco2)nn1S(=O)(=O)c1ccccc1` the activity change (PNC), negative = inhibition was inconclusive: -66.8%.
In the case of `CN1CCN(C(=S)Nc2cc([N+](=O)[O-])ccc2Cl)CC1`, the activity change (PNC), negative = inhibition is reported as inactive: -24.3%.
With `S=C(c1ccc(-c2ccccc2Cl)o1)N1CCOCC1` the activity change (PNC), negative = inhibition was inconclusive: -43.5%.
For `O=C(OC(C(=O)NC1CCCC1)c1ccccc1F)c1ccco1` (stereo not given), the activity change (PNC), negative = inhibition was active: -139%.
For `CCOc1ccc(OCc2ccc(C(=O)Nc3cccnc3)o2)cc1`, the activity change (PNC), negative = inhibition was inconclusive: -45.6%.
For `c1csc(CN2CCN(Cc3cccs3)C2c2cccs2)c1`, the activity change (PNC), negative = inhibition was inconclusive: -47.7%.
With `O=C(NC1CC1)c1ccc(S(=O)(=O)NCC2CCCCC2)cc1` the activity change (PNC), negative = inhibition was inactive: 8.36%.
In the case of `COC(=O)C(CC(C)C)NC(=O)CSc1nc(-c2ccccc2)c(C#N)c(=O)[nH]1` (stereo not given), the activity change (PNC), negative = inhibition is reported as inactive: 6.87%.
In the case of `Cc1ccccc1NC(=O)c1ccc(COc2ccc3c(C)cc(=O)oc3c2)cc1`, the activity change (PNC), negative = inhibition is reported as inactive: 90.9%.
For `CCn1c(SCC(=O)N2CCCc3ccccc32)nc2c1c(=O)n(C)c(=O)n2C`, the activity change (PNC), negative = inhibition was inactive: -25.2%.
With `C=C1C2(C(=O)Nc3ccc(SC(F)F)cc3)CCC(C2)C1(C)C` (stereo not given) the activity change (PNC), negative = inhibition was inconclusive: -38.1%.
For `O=C(C1CC1)N1CCC(C(O)(c2ccccc2)c2ccccc2)CC1`, the activity change (PNC), negative = inhibition was inconclusive: -41.9%.
For `C/C(CC(=O)NCCCN1CCOCC1)=N\NC(=O)COc1cccc2ccccc12`, the activity change (PNC), negative = inhibition was inconclusive: -49%.
With `CCN1c2cccc3cccc(c23)S1(=O)=O` the activity change (PNC), negative = inhibition was inconclusive: -42.4%.
For `O=C(c1ccc(Cl)cc1)c1oc2ccccc2c1CS(=O)c1ccccc1` (stereo not given), the activity change (PNC), negative = inhibition was inconclusive: -34.9%.
With `O=C(c1cc2ccccc2oc1=O)N(Cc1ccco1)Cc1cccs1` the activity change (PNC), negative = inhibition was inactive: -4.51%.
With `COc1ccc(NC(=O)c2cc(-c3ccc(C)o3)nc3ccccc23)cc1OC` the activity change (PNC), negative = inhibition was inconclusive: -46.2%.
With `C#CCn1cc(/C=N/NC(=O)c2cc3ccccc3o2)c2ccccc21` the activity change (PNC), negative = inhibition was inconclusive: -41.3%.
With `O=C(NCc1cccs1)c1cc(-c2ccccc2)nc2ccccc12` the activity change (PNC), negative = inhibition was inconclusive: -51.7%.
For `S=C(NNc1ccnc2cc(Cl)ccc12)Nc1ccccc1Cl`, the activity change (PNC), negative = inhibition was inactive: 16.5%.
For `CN(C)c1oc(-c2ccc(Cl)cc2)nc1S(=O)(=O)c1ccccc1`, the activity change (PNC), negative = inhibition was inactive: -5.16%.
For `COC(=O)CSc1nnc(CNC(=O)c2ccccc2OC)n1C`, the activity change (PNC), negative = inhibition was active: -87.5%.
For `CCNC(=O)c1sc(=S)n(-c2ccc(C)cc2)c1N`, the activity change (PNC), negative = inhibition was inactive: 15.2%.
With `Cc1cc2cc(CN(CCN3CCOCC3)C(=O)Nc3ccccc3F)c(=O)[nH]c2cc1C` the activity change (PNC), negative = inhibition was inconclusive: -49.6%.
With `CCOC(=O)CSc1nc2c(c(=O)n(Cc3ccccc3Cl)c(=O)n2C)n1C` the activity change (PNC), negative = inhibition was inconclusive: -51.1%.
For `Cc1cc(C)c(C#N)c(SCC(=O)c2cc(C)n(CCc3ccccc3)c2C)n1`, the activity change (PNC), negative = inhibition was inconclusive: -38.3%.
For `COc1cccc(C(=O)Nc2cccc(C(=O)NCC(C)C)c2)c1`, the activity change (PNC), negative = inhibition was inconclusive: -42.7%.
In the case of `CN(C)C(=S)Nc1ccc2ccccc2c1`, the activity change (PNC), negative = inhibition is reported as inconclusive: -55.4%.
In the case of `CCn1c(COc2ccc(OC)cc2)nc2ccccc21`, the activity change (PNC), negative = inhibition is reported as inconclusive: -44.4%.
For `CCOC(=O)Nc1nnc(/C=C/c2ccc(OC)cc2)s1`, the activity change (PNC), negative = inhibition was inconclusive: -40.6%.
In the case of `Fc1cccc(CSc2ncnc3c2oc2ccccc23)c1`, the activity change (PNC), negative = inhibition is reported as inconclusive: -69.3%.
In the case of `N=c1ncn(CC(O)CO)c2nc(N3CCOCC3)[nH]c12` (stereo not given), the activity change (PNC), negative = inhibition is reported as inconclusive: -73%.
With `COc1cc(OC)nc(NC(=O)NS(=O)(=O)c2ccc(OC(F)(F)F)cc2)n1` the activity change (PNC), negative = inhibition was inactive: -19%.
For `CCCc1nc(N2CCOCC2)c(C#N)c2c1CCCC2`, the activity change (PNC), negative = inhibition was inconclusive: -45.1%.
With `Cn1c(SCc2nc(-c3cccs3)no2)nnc1C1CCCCC1` the activity change (PNC), negative = inhibition was inconclusive: -60.3%.
With `CNC(=S)NC1CC2CCCC(C1)N2Cc1ccco1` (stereo not given) the activity change (PNC), negative = inhibition was inconclusive: -66%.
In the case of `CCN(CC)c1ccc2c(C)c(-c3ccc(N)cc3)c(=O)oc2c1`, the activity change (PNC), negative = inhibition is reported as inconclusive: -38.2%.
For `CCCC(=O)Nc1sc(C)c(C)c1C(=O)Nc1cccc(C)c1`, the activity change (PNC), negative = inhibition was inactive: 13.2%.
In the case of `CCC(C)(C(=O)NC1CCCCC1)N(CC1CCCO1)C(=O)CNC(=O)c1ccccc1` (stereo not given), the activity change (PNC), negative = inhibition is reported as inconclusive: -69.6%.
With `CN1CCc2c(sc3c2C(=O)NC(c2cn(Cc4ccccc4)c4ccccc24)N3)C1` (stereo not given) the activity change (PNC), negative = inhibition was active: -103%.
For `C/C(=C\C(=O)C(F)(F)F)Nc1ccc(C(F)(F)F)cc1`, the activity change (PNC), negative = inhibition was inconclusive: -61.2%.
With `Cc1ccc(S(=O)(=O)N2CC(O)CC2C(=O)Nc2ccc3c(c2)CCC3)cc1` (stereo not given) the activity change (PNC), negative = inhibition was inconclusive: -44.3%.
In the case of `CC1=CC(C)C2(CO)COC(c3ccccc3O)C1C2C` (stereo not given), the activity change (PNC), negative = inhibition is reported as inactive: -15.1%.
In the case of `C=CCOc1c(Cl)cc(C2NC(=O)NC(C)=C2C(=O)OC)cc1Cl` (stereo not given), the activity change (PNC), negative = inhibition is reported as inactive: 20%.
In the case of `COc1ccc(-c2nnc(NC(=O)c3cc(C)on3)s2)cc1`, the activity change (PNC), negative = inhibition is reported as inconclusive: -36%.
For `Cc1ccc(NC(=S)NNC(=O)CSc2nc3ccccc3c(=O)n2-c2ccc(C)cc2)cc1`, the activity change (PNC), negative = inhibition was inactive: -2.9%.
In the case of `Cc1cc(/C=N\NC(=O)c2cccs2)c(C)n1-c1ccc2ncccc2c1`, the activity change (PNC), negative = inhibition is reported as inconclusive: -58.2%.
For `COc1ccccc1-n1cnc2cc(NCc3cccs3)ccc21`, the activity change (PNC), negative = inhibition was active: -80.5%.
In the case of `CC(=O)N/C(=C/c1ccc(OS(=O)(=O)c2ccc(C)cc2)cc1)C(=O)NCCO`, the activity change (PNC), negative = inhibition is reported as inactive: -2.74%.
With `Cc1cccc(NC(=O)c2ccccc2Br)n1` the activity change (PNC), negative = inhibition was inactive: 57.1%.
